3 sequences from publication PMC11319797 can be followed below.

For at least one entry, the source does not settle the construct or the ends of the probe. For some of these results: Where cells or extracts were used, other partners may take part. For some of these results: Negatives hold for the conditions tested. For some of these results: Tags and fusion partners may be left off the protein sequences shown.

Data set [1] has as its target T1, DiPRO1 (ZNF555), HA-tagged (Homo sapiens) (UniProt Q8NEP9).
T1 sequence (looked up, limits assumed): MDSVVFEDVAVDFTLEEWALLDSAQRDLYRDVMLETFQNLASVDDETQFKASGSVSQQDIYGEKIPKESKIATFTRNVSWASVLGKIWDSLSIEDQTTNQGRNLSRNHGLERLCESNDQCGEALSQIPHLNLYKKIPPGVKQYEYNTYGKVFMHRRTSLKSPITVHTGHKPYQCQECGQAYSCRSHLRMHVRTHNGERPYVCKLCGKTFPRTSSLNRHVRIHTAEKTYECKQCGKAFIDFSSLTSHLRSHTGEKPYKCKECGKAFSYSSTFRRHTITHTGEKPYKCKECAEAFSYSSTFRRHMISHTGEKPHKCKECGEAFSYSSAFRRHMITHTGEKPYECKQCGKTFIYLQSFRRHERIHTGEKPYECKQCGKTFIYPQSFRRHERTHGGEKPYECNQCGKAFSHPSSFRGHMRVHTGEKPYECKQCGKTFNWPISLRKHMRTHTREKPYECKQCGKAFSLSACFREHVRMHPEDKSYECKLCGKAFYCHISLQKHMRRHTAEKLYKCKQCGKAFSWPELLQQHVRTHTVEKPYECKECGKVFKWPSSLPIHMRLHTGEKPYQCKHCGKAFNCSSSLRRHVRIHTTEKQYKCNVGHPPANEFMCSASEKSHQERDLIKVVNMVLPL
Briefly: competition with a labelled probe. The conditions noted are these: 300-fold excess unlabeled, 20 mM HEPES pH 7.6, 40 mM NaCl, 5 mM MgCl2, 0.5 mM ZnSO4, 0.1 mM EDTA, 4% Ficoll, 1 ug poly(dI-dC), 100-200 fmol DNA, 5-6 ug nuclear extract in 20 ul, on ice 30 min, protein in an extract, label: unlabeled competitor.

The target in data set [2] is T1, DiPRO1 (ZNF555), HA-tagged (Homo sapiens). Put plainly: EMSA. The note with it: nuclear extract, complexes suppressed by anti-HA; 20 mM HEPES pH 7.6, 40 mM NaCl, 5 mM MgCl2, 0.5 mM ZnSO4, 0.1 mM EDTA, 4% Ficoll, 1 ug poly(dI-dC), 100-200 fmol DNA, 5-6 ug nuclear extract in 20 ul, on ice 30 min; protein in an extract; label: Klenow end label. In general terms: A gel shift assay detects complexes by their altered migration in electrophoresis.

In data set [3] the test system is SIX1. Put plainly: EMSA. The note with it: added to pDiPRO1-RMS extract, BS4 forms, DiPRO1 BS1/2 weakened; 20 mM HEPES pH 7.6, 40 mM NaCl, 5 mM MgCl2, 0.5 mM ZnSO4, 0.1 mM EDTA, 4% Ficoll, 1 ug poly(dI-dC), 100-200 fmol DNA, 5-6 ug nuclear extract in 20 ul, on ice 30 min; protein translated in vitro; label: Klenow end label.

For the sequence “GAGAAAGGCTGGCTTCCCTCCATG (double strand) [TNFSF9 site]”, the binding result in data set [1] (considerably reduced DiPRO1 complexes) was “binds”.
Consider “GAATGTCAGGGGCTTCAGGTTTCCCTAAATA (double strand) [Aldolase A MEF3 site]”, for which the binding result in data set [2] and in data set [3] was “binds” in each case.
With “GCGCCTGGCCTAGGGTCCCTTTT (double strand) [TRAF1 site]”, the binding result in data set [1] (did not compete) is listed as “no binding”.
